Sequences of proteins named here, by UniProt entry; tags and fusion partners are left off.
UniProt P97334, whole entry: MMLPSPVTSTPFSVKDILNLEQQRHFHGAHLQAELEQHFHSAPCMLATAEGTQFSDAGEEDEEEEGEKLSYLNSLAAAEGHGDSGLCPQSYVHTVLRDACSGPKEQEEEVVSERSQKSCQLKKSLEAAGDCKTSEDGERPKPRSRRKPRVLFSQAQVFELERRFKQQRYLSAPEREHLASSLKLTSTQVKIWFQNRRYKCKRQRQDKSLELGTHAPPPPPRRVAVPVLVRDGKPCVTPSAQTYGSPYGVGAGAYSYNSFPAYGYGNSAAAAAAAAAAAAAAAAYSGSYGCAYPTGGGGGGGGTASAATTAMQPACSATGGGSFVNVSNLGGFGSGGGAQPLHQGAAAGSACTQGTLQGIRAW

According to paper PMC9718832, “An NKX-COUP-TFII morphogenetic code directs mucosal endothelial addressin expression” (Nature Communications, 2022):

Columns and labels:
Experiment in all cases: EMSA
[1] = target: T1, COUP-TFII (mouse) (UniProt P43135); conditions: EMSA: 20 mM Tris pH 8.0, 10 mM KCl, 1 mM DTT, 20% glycerol, 12.5 ng poly dI/C, 6.25 pmol random ss oligo, BSA, 1-2 pmol probe, 4 C; recombinant protein; protein details: His, T7 (pET21A)
T1 sequence (looked up, limits assumed): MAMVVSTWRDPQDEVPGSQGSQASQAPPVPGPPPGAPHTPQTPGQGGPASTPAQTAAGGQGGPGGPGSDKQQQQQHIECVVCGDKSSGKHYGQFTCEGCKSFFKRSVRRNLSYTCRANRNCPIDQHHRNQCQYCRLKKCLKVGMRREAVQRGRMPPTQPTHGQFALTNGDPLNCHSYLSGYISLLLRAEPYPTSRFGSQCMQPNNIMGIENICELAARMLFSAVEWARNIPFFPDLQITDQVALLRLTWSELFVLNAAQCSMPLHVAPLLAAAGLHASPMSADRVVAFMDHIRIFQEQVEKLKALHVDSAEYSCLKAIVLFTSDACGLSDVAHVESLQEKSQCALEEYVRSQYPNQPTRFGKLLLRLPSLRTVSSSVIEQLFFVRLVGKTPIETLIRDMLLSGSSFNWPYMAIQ

[2] = target: NKX2-3 (mouse) (UniProt P97334); conditions: EMSA: 20 mM Tris pH 8.0, 10 mM KCl, 1 mM DTT, 20% glycerol, 12.5 ng poly dI/C, 6.25 pmol random ss oligo, BSA, 1-2 pmol probe, 4 C; recombinant protein; protein details: His, T7 (pET21A)
[3] = system: NKX2-1 + COUP-TFII; conditions: COUP-TFII tag not stated; EMSA: 20 mM Tris pH 8.0, 10 mM KCl, 1 mM DTT, 20% glycerol, 12.5 ng poly dI/C, 6.25 pmol random ss oligo, BSA, 1-2 pmol probe, 4 C; recombinant protein; protein details: pET21A tags (Cyagen),His, T7 (pET21A)

Sequence	binding result [1]	binding result [2]	binding result [3]
CCATGCACTTGAAAAAAAATGGTGACCCACCTCC (double strand) [Madcam1 CE_deltaC_A]	binds	binds	–
CCATGCACTTGAGGCACCATGGTGAGGCACCTCC (double strand) [Madcam1 CE m3 (both COUP-TFII sites mutated)]	no binding	–	–
TTGCCAAATTATGTGAAAATTGGCAGACCAGCTG (double strand) [Nrp2_deltaC_A NCCE]	–	–	binds

For at least one entry, the source does not settle the construct or the ends of the probe. For some of these results: A negative result means that nothing was seen under these conditions. At least one verdict was read from the data and is not stated in words by the source. For some of these results: Where a protein sequence is shown, tags need not be part of it.
